Results are given in words; binding and its absence hold for the method and conditions named. For part of these data: In cells and extracts the contact can be indirect. For part of these data: Binding can be weak; no strength is given. Where a sequence is shown, tags or fusion partners need not be part of it.

The target in experiment [1] is SCMV-BJ VPg-YFP^N (BiFC fusion, pUC-SPYNE) (Sugarcane mosaic virus, Beijing isolate (SCMV-BJ)). Kind of experiment: split reporter; BiFC: YFP^N and YFP^C fusions co-transfected into maize protoplasts; YFP fluorescence captured at 12-18 h post transfection by confocal microscopy.
Experiment [2] concerns the target YFP^C-ZmElc (BiFC fusion, pGD-YFP^C-ZmELC) (maize (Zea mays)). The description is as above.
Experiment [3] concerns the target maize Elongin C (ZmElc), Gal4 DNA-binding domain fusion (pGBKT7-ZmELC) (maize (Zea mays)). Kind of experiment: two-hybrid; pGBKT7 and pGADT7 constructs co-transformed into yeast strain AH109; growth on SD/-Ade/-His/-Leu/-Trp at 30°C for 3-4 d.

B1: ZmeIF4E-YFP^C (BiFC fusion) (protein, UniProt O81481 1-218)
chain: MAEETDTRPASAGSRGRPAPEDDDREEGEITDLACAPSPPATHPLEHSWTFWFDNPQSKSKQAAWGSSIRPIHTFSTVEEFWGLYNNINHPSKLIVGADFHCFKNKIEPKWEDPICANGGKWTISCGRGKSDTFWLHTLLAMIGEQFDYGDEICGAVVSVRGKQERIAIWTKNAANEAAQVSIGKQWKELLDYKDSIGFIVHDDAKKMDKGLKNRYTV
In the case of B1, in experiment [1], the binding result was “binds”.

B2: ZmeIF4E-YFP^N (BiFC fusion) (protein, UniProt O81481 1-218)
chain: MAEETDTRPASAGSRGRPAPEDDDREEGEITDLACAPSPPATHPLEHSWTFWFDNPQSKSKQAAWGSSIRPIHTFSTVEEFWGLYNNINHPSKLIVGADFHCFKNKIEPKWEDPICANGGKWTISCGRGKSDTFWLHTLLAMIGEQFDYGDEICGAVVSVRGKQERIAIWTKNAANEAAQVSIGKQWKELLDYKDSIGFIVHDDAKKMDKGLKNRYTV
As to B2, the binding result in experiment [2] is recorded as “no binding”.

B3: maize eukaryotic translation initiation factor 4E (ZmeIF4E), Gal4 activation domain fusion (pGADT7-ZmeIF4E) (protein, UniProt O81481 1-218)
chain: MAEETDTRPASAGSRGRPAPEDDDREEGEITDLACAPSPPATHPLEHSWTFWFDNPQSKSKQAAWGSSIRPIHTFSTVEEFWGLYNNINHPSKLIVGADFHCFKNKIEPKWEDPICANGGKWTISCGRGKSDTFWLHTLLAMIGEQFDYGDEICGAVVSVRGKQERIAIWTKNAANEAAQVSIGKQWKELLDYKDSIGFIVHDDAKKMDKGLKNRYTV
For B3, the binding entry in experiment [3] is given as “no binding”.

Values taken from publication PMC4143955.
